This is one part of the list.
Assays:
Assay in all cases: log2 fold change, soluble protein after heating vs DMSO (PISA); higher = thermal stabilisation; K562 lysate, 10 uM; active = over 0.2 and 3.5 SD of the protein, either way, in both replicates (recomputed)
erlotinib = compound: C#Cc1cccc(Nc2ncnc3cc(OCCOC)c(OCCOC)cc23)c1 [erlotinib]
Summary of the method: (§1)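 Quantification was by TMTpro 16plex LC-MS/MS with equalised channel sums, applied to the supernatant after 21,000xg for 90 min. Samples were crude K562 extract at 1 mg/mL protein in PBS pH 7.4 with 1 mM MgCl2, treated with 10 μM compound for 30 min, heated for 3 min across 48°C-58°C, pooled and brought to 0.5% NP-40 at 4°C. Values are log-two fold changes in thermal stability relative to solvent controls, from duplicates.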

The chains behind the UniProt entries cited, without tags or fusion partners. Where a name states a change or a piece, a line headed by the entry shows the natural chain unless it says otherwise.
UniProt P10515, whole entry, looked up: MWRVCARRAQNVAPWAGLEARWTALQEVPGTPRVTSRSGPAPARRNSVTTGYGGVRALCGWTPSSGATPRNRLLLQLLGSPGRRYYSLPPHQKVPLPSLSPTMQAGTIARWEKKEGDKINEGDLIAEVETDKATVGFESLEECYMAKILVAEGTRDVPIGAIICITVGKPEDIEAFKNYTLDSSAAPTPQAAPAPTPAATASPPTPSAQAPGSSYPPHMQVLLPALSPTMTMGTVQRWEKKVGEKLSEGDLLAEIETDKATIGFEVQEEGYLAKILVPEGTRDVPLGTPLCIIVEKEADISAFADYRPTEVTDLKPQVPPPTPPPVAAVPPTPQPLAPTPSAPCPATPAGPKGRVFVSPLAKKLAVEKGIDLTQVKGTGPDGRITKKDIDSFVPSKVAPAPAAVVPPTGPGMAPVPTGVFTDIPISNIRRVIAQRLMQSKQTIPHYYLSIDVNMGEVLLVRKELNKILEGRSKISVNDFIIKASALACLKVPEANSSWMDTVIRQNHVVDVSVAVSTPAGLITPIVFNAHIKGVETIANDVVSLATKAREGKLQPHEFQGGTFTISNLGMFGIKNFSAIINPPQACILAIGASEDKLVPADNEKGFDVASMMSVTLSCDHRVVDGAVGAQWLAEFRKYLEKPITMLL
UniProt P52824: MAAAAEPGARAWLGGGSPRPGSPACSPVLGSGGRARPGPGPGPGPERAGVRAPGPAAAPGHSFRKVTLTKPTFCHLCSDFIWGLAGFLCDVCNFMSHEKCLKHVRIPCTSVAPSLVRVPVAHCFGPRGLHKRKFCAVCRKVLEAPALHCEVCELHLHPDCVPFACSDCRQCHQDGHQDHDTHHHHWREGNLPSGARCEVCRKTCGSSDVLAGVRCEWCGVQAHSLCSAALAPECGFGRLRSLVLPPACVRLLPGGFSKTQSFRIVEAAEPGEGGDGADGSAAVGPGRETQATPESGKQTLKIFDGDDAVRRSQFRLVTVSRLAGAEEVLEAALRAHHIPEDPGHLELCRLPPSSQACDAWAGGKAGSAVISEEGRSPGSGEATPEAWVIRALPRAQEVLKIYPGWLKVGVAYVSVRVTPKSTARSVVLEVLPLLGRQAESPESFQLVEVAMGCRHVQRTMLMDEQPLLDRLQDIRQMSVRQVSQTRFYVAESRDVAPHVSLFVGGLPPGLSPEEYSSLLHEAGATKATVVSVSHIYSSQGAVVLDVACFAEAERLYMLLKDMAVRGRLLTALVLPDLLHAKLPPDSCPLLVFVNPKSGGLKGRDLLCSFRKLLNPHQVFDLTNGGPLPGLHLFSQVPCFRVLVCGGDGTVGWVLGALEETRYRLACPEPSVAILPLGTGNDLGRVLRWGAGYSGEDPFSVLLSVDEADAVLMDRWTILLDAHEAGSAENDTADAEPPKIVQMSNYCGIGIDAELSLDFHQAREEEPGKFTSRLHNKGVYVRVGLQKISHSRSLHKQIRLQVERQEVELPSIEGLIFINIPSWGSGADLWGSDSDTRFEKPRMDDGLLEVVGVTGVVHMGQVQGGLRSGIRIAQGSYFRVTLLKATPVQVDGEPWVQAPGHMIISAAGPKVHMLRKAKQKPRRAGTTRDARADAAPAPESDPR
UniProt Q8TE73: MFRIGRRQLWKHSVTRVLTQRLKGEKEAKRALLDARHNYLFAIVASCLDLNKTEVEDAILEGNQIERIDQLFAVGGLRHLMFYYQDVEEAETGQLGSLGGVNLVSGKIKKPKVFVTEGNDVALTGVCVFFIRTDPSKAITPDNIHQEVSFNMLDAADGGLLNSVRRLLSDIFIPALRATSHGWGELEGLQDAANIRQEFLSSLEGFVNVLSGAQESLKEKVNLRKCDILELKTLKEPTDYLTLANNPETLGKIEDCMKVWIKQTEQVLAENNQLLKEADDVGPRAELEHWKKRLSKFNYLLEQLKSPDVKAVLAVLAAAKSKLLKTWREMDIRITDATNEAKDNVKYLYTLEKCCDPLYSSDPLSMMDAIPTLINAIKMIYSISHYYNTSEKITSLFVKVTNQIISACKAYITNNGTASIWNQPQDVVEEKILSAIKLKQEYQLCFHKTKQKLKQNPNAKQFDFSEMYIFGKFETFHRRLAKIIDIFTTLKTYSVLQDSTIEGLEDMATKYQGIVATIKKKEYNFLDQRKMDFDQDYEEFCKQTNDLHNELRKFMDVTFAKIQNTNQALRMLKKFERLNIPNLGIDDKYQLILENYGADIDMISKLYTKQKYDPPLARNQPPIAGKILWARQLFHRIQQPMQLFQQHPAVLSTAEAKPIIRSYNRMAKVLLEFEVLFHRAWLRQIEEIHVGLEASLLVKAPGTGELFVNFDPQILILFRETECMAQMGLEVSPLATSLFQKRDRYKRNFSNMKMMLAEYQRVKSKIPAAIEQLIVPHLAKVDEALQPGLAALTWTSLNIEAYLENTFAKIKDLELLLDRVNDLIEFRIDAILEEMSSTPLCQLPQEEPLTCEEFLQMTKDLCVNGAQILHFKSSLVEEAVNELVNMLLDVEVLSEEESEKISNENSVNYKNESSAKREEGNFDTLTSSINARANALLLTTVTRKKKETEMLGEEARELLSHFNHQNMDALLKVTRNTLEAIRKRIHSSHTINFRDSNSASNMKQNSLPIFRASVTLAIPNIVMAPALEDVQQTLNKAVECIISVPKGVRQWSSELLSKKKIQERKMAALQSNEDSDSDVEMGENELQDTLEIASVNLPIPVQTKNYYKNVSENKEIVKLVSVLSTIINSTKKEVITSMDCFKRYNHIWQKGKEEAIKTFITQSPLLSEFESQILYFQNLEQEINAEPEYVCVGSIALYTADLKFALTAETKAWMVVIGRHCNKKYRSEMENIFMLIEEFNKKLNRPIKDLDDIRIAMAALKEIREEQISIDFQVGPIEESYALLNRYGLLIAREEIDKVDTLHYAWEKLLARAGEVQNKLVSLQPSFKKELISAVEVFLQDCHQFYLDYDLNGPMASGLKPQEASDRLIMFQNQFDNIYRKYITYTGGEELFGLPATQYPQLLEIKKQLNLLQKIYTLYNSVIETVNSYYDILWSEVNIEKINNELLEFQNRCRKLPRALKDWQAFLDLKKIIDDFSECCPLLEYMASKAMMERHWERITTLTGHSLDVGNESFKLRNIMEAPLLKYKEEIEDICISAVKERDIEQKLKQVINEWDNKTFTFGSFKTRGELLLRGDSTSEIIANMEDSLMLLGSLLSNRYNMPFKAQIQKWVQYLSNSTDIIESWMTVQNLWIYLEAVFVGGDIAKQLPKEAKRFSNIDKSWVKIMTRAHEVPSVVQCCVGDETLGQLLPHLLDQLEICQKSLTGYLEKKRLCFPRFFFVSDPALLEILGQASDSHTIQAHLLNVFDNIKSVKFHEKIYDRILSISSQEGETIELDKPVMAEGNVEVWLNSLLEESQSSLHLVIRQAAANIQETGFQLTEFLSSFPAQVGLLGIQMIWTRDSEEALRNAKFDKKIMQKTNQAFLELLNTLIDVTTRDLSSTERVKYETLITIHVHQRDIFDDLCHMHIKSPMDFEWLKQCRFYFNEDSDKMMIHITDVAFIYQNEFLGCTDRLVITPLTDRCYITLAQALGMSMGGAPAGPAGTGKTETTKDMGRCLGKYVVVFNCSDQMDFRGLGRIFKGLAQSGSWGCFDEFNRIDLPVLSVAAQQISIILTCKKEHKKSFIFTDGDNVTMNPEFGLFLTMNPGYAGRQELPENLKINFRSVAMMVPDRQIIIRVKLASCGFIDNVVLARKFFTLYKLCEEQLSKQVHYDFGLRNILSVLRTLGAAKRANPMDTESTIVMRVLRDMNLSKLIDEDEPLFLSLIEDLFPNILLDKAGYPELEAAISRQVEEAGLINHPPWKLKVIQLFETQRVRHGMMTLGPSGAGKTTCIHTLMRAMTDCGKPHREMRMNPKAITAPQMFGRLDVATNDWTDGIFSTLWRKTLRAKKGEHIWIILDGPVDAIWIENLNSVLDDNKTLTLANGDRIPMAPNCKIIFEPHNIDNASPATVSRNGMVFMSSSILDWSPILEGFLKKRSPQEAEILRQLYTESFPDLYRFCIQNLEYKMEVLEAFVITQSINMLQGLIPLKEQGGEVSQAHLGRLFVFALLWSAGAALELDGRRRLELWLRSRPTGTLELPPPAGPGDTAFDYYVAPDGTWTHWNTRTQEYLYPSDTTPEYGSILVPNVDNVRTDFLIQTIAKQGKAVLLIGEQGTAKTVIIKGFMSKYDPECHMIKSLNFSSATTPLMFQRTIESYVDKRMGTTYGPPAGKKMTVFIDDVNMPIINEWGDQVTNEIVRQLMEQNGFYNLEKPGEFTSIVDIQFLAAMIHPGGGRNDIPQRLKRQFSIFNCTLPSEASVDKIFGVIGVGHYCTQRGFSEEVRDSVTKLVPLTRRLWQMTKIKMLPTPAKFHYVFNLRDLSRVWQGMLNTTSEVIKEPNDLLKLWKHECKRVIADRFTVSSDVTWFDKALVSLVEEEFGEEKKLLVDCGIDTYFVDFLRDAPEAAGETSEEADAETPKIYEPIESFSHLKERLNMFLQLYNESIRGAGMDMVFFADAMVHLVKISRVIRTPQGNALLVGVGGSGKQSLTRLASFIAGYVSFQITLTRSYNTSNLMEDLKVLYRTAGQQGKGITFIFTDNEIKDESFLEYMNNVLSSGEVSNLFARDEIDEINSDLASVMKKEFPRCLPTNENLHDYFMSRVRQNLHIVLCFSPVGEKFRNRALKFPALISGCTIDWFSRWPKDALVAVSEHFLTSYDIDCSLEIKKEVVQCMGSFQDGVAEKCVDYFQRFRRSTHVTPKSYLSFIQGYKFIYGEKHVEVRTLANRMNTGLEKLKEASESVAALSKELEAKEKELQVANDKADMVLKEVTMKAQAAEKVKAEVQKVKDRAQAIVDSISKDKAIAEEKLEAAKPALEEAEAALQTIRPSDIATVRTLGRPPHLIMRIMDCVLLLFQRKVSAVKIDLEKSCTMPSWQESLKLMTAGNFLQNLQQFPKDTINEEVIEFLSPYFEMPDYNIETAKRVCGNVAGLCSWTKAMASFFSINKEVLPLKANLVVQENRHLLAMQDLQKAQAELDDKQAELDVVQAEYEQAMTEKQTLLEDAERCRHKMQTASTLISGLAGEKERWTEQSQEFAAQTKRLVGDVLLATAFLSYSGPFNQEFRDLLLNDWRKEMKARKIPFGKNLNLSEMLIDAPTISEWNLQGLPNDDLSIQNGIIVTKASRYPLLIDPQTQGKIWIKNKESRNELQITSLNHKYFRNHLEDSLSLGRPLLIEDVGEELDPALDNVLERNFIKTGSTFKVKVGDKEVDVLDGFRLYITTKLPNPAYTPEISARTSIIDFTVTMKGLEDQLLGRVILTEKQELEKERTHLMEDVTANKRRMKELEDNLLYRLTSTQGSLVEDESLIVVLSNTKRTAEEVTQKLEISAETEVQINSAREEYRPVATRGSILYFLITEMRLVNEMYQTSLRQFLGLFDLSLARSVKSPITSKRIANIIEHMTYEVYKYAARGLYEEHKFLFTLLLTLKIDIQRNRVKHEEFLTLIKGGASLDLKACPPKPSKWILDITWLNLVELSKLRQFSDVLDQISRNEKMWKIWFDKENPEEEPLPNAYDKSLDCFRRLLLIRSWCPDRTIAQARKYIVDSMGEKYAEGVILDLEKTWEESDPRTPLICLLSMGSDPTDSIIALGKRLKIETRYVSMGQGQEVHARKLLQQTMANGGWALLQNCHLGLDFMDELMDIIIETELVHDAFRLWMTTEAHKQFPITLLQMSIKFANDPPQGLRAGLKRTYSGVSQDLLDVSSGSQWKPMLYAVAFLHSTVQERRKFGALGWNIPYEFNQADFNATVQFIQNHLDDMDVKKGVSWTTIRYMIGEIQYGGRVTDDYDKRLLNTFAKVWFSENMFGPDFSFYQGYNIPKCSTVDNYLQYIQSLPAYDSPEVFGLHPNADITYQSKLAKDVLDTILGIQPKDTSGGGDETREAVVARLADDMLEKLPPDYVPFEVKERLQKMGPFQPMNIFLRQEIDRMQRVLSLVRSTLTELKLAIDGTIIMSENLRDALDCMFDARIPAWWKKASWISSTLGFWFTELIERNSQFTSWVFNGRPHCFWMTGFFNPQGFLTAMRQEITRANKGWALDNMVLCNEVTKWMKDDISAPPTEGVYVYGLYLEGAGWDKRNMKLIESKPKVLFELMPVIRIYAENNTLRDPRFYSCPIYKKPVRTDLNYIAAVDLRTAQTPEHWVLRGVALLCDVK
UniProt Q6UX07: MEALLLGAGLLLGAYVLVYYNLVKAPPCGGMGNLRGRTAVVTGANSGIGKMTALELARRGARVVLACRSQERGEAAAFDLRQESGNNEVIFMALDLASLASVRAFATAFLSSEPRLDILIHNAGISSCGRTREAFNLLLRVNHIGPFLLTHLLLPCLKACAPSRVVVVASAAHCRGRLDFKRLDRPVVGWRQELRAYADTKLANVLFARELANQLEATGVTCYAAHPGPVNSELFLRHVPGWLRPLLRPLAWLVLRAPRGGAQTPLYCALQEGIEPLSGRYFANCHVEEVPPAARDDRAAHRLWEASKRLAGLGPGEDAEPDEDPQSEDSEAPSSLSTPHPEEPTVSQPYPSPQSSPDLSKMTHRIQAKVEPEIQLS

[1] = compound: C/C(=N\NC(=O)C1=CC(=CC=C1)S(=O)(=O)N2CCOCC2)/C3=C(C=CC(=C3)Cl)O
Summary of the method: as §1

[2] = compound: C1=CC(=CC=C1C2=NC3=C(N2)C=C(C=C3)C(=O)N)OC4=CC=C(C=C4)Cl
Summary of the method: as §1

[3] = compound: C1=CC2=C(C=CC(=C2)/C=C\3/C(=O)NC(=NCC4=CC=CS4)S3)N=C1
Summary of the method: as §1

[4] = compound: C1=CC2=NC=CN=C2C=C1/C=C/3\C(=O)NC(=O)S3
Summary of the method: as §1

[5] = compound: C1=CC=C(C=C1)C2=NC(=C(N2)C3=CC=NC=C3)C4=CC(=C(C=C4)Cl)O
Summary of the method: as §1

[6] = compound: C1=CC=C2C(=C1)C3=NNC4=CC=CC(=C43)C2=O
Summary of the method: as §1

[7] = compound: C1CCN(C1)C(=O)NC2=CC=CC(=C2)NC3=NC=C(C(=N3)NCCC4=CN=CN4)Br
Summary of the method: as §1

[8] = compound: C1CN(CCC1(CC2=CC=C(C=C2)Cl)N)C3=NC=NC4=C3C=CN4
Summary of the method: as §1

IRAK-1-4 Inhibitor I = compound: C1COCCN1CCN2C3=CC=CC=C3N=C2NC(=O)C4=CC(=CC=C4)[N+](=O)[O-] [IRAK-1-4 Inhibitor I]
Summary of the method: as §1

ibrutinib = compound: C=CC(=O)N1CCC[C@@H](n2nc(-c3ccc(Oc4ccccc4)cc3)c3c(N)ncnc32)C1 [ibrutinib]
Summary of the method: as §1

[9] = compound: CC(=O)c1cnc2ccc(-c3cc(Cl)c(O)c(Cl)c3)nc2c1N[C@H]1CC[C@H](CN(C)C)CC1
Summary of the method: as §1

ralimetinib = compound: CC(C)(C)Cn1c(N)nc2ccc(-c3[nH]c(C(C)(C)C)nc3-c3ccc(F)cc3)nc21 [ralimetinib]
Summary of the method: as §1

[10] = compound: CC(C)(O)CC(=O)NCCn1ccc2ncnc(Nc3ccc(Oc4cccc(C(F)(F)F)c4)c(Cl)c3)c21
Summary of the method: as §1

[11] = compound: CC(C)C1=C2N=C(C=C(N2N=C1)NCC3=CC=CC=C3)NCCCCCCN
Summary of the method: as §1

[12] = compound: CC1=C(C(CC(=O)N1)C2=CC=C(C=C2)C(F)(F)F)C(=O)NC3=C(C=C4C(=C3)C=NN4)F
Summary of the method: as §1

[13] = compound: CC1=C(C2=C(C=C1)C(=O)C3=CC=CC=C3N2CCCN)C
Summary of the method: as §1

[14] = compound: CC1=C(C=C(C=C1)NC(=O)C2=CC(=CC=C2)C(C)(C)C#N)NC3=CC4=C(C=C3)N=CN(C4=O)C
Summary of the method: as §1

[15] = compound: CC1=C(C=C(C=C1)NC(=O)C2=CC(=CC=C2)N(C)C)NC(=O)C3=CC=C(C=C3)O
Summary of the method: as §1

[16] = compound: CC1=CC=C(C=C1)SC2=C3C=C(SC3=CN=C2)C(=O)N
Summary of the method: as §1

Measured: log2 fold change

DOHH (UniProt Q9BU89)
inactive: erlotinib 0.011 | [1] -0.051 | [2] -0.01 | [3] 0.005 | [4] -0.055 | [5] 0.03 | [6] -0.042 | [7] -0.029 | [8] 0.078 | IRAK-1-4 Inhibitor I 0.043 | ibrutinib -0.039 | [9] -0.02 | ralimetinib 0.065 | [10] -0.025 | [11] 0.008 | [12] -0.006 | [13] 0.016 | [14] 0.037 | [15] 0 | [16] 0.066

DLAT (UniProt P10515)
inactive: erlotinib -0.016 | [1] 0.024 | [2] -0.029 | [3] -0.005 | [4] -0.01 | [5] -0.027 | [6] -0.001 | [7] 0.018 | [8] 0.003 | IRAK-1-4 Inhibitor I 0.013 | ibrutinib 0.006 | [9] -0.013 | ralimetinib 0.018 | [10] -0.027 | [11] 0.003 | [12] -0.044 | [13] 0.005 | [14] 0.099 | [15] -0.023 | [16] -0.011

DHX38 (UniProt Q92620)
inactive: erlotinib -0.031 | [1] -0.061 | [2] 0.018 | [3] 0.036 | [4] -0.032 | [5] 0.021 | [6] -0.006 | [7] -0.008 | [8] 0.026 | IRAK-1-4 Inhibitor I -0.025 | ibrutinib -0.018 | [9] -0.036 | ralimetinib 0.009 | [10] -0.006 | [11] -0.015 | [12] 0.011 | [13] -0.023 | [14] -0.038 | [15] 0.034 | [16] 0.016

DNASE2 (UniProt O00115)
inactive: erlotinib -0.004 | [1] 0.053 | [2] -0.031 | [3] 0.004 | [4] -0.007 | [5] -0.038 | [6] 0.049 | [7] 0.025 | [8] -0.016 | IRAK-1-4 Inhibitor I -0.023 | ibrutinib 0.088 | [9] -0.035 | ralimetinib 0.003 | [10] 0.001 | [11] -0.001 | [12] -0.035 | [13] -0.021 | [14] -0.025 | [15] -0.009 | [16] -0.012

DMTN (UniProt Q08495)
inactive: erlotinib -0.002 | [1] -0.032 | [2] -0.018 | [3] 0.001 | [4] 0 | [5] 0.009 | [6] -0.022 | [7] 0.023 | [8] 0.015 | IRAK-1-4 Inhibitor I -0.005 | ibrutinib 0.048 | [9] 0.029 | ralimetinib 0.001 | [10] 0.015 | [11] 0.03 | [12] -0.004 | [13] -0.01 | [14] 0.001 | [15] 0.013 | [16] -0.001

DGAT1 (UniProt O75907)
inactive: erlotinib -0.06 | [1] 0.06 | [2] -0.137 | [3] -0.079 | [4] 0.055 | [5] 0.05 | [6] 0.009 | [7] 0.013 | [8] 0.049 | IRAK-1-4 Inhibitor I -0.033 | ibrutinib 0.12 | [9] -0.041 | ralimetinib 0.075 | [10] -0.048 | [11] -0.017 | [12] -0.341 | [13] -0.101 | [14] -0.008 | [15] 0.044 | [16] 0.177

DGKQ (UniProt P52824)
inactive: erlotinib 0.083 | [1] -0.194 | [2] 0.095 | [3] -0.054 | [5] -0.187 | [6] -0.204 | [7] -0.06 | [8] 0.22 | IRAK-1-4 Inhibitor I -0.23 | [9] -0.002 | ralimetinib 0.046 | [10] -0.049 | [11] -0.258 | [12] -0.056 | [13] 0.053 | [15] 0.066 | [16] -0.009

DPAGT1 (UniProt Q9H3H5)
inactive: erlotinib -0.043 | [2] 0.059 | [4] 0.043 | [5] -0.082 | IRAK-1-4 Inhibitor I -0.027 | ibrutinib -0.057 | [9] -0.004 | ralimetinib 0.147 | [10] -0.027 | [11] -0.075 | [12] 0 | [14] -0.034 | [15] -0.035 | [16] -0.043

DMTF1 (UniProt Q9Y222)
inactive: erlotinib -0.011 | [1] -0.021 | [2] -0.016 | [3] 0.069 | [4] 0.002 | [5] 0.048 | [6] -0.04 | [7] -0.154 | [8] 0.071 | IRAK-1-4 Inhibitor I 0.04 | ibrutinib 0.012 | [9] 0.115 | ralimetinib 0.004 | [10] 0.013 | [11] -0.033 | [12] 0.004 | [13] -0.099 | [14] -0.016 | [15] -0.007 | [16] 0.05

DHTKD1 (UniProt Q96HY7)
inactive: erlotinib 0.065 | [2] 0.015 | [4] 0.029 | [5] -0.04 | IRAK-1-4 Inhibitor I 0.011 | ibrutinib 0.016 | [9] 0.083 | ralimetinib -0.018 | [10] -0.039 | [11] 0.056 | [12] -0.147 | [14] -0.042 | [15] 0.038 | [16] -0.036

DNAJA3 isoform 2 (UniProt Q96EY1)
inactive: erlotinib 0.048 | [1] -0.217 | [2] 0.099 | [3] 0.035 | [4] -0.006 | [5] 0.082 | [6] -0.159 | [7] 0.011 | [8] -0.047 | IRAK-1-4 Inhibitor I 0.024 | ibrutinib 0.005 | ralimetinib 0.03 | [10] -0.089 | [11] -0.046 | [13] -0.074 | [15] -0.036

Two successive entries from above:
DPAGT1 (UniProt Q9H3H5)
inactive: erlotinib -0.043 | [2] 0.059 | [4] 0.043 | [5] -0.082 | IRAK-1-4 Inhibitor I -0.027 | ibrutinib -0.057 | [9] -0.004 | ralimetinib 0.147 | [10] -0.027 | [11] -0.075 | [12] 0 | [14] -0.034 | [15] -0.035 | [16] -0.043

DMTF1 (UniProt Q9Y222)
inactive: erlotinib -0.011 | [1] -0.021 | [2] -0.016 | [3] 0.069 | [4] 0.002 | [5] 0.048 | [6] -0.04 | [7] -0.154 | [8] 0.071 | IRAK-1-4 Inhibitor I 0.04 | ibrutinib 0.012 | [9] 0.115 | ralimetinib 0.004 | [10] 0.013 | [11] -0.033 | [12] 0.004 | [13] -0.099 | [14] -0.016 | [15] -0.007 | [16] 0.05

Later entries:

DOK3 (UniProt Q7L591)
inactive: erlotinib 0.036 | [1] -0.022 | [2] 0.111 | [3] -0.033 | [4] -0.022 | [5] 0.033 | [6] 0.273 | [7] 0.02 | [8] 0.168 | IRAK-1-4 Inhibitor I 0.052 | ibrutinib 0.071 | [9] -0.023 | ralimetinib 0.024 | [10] -0.079 | [11] 0.049 | [12] 0.042 | [13] 0.043 | [14] -0.015 | [15] -0.071 | [16] 0.013

DOCK2 (UniProt Q92608)
inactive: erlotinib 0.182 | [1] 0.317 | [2] 0.074 | [3] -0.041 | [5] -0.003 | [6] -0.099 | [7] 0.023 | [8] -0.054 | IRAK-1-4 Inhibitor I -0.082 | [9] 0.115 | ralimetinib -0.142 | [10] 0.05 | [11] -0.109 | [12] 0.163 | [13] -0.218 | [14] 0.043 | [15] 0.043 | [16] -0.052

DGCR2 (UniProt P98153)
inactive: erlotinib 0.05 | [1] 0.01 | [2] -0.129 | [3] 0.031 | [5] -0.173 | [6] -0.084 | [7] 0.056 | [8] 0.006 | IRAK-1-4 Inhibitor I -0.086 | [9] 0.092 | ralimetinib 0.082 | [10] 0.012 | [11] 0.154 | [12] 0.163 | [13] -0.028 | [15] -0.024 | [16] 0.019

DNAH5 (UniProt Q8TE73)
inactive: erlotinib -0.006 | [1] -0.008 | [2] 0 | [3] -0.024 | [4] 0.015 | [5] 0.004 | [6] -0.056 | IRAK-1-4 Inhibitor I -0.015 | ibrutinib -0.064 | [9] -0.009 | ralimetinib -0.045 | [10] -0.138 | [11] 0.076 | [12] 0.062 | [13] 0.014 | [15] 0.019 | [16] 0.086

DHRS4L1 (UniProt P0CG22)
inactive: erlotinib 0.01 | [1] 0.156 | [2] -0.05 | [3] -0.136 | [4] -0.014 | [5] -0.062 | [6] 0.01 | [7] -0.005 | [8] 0.026 | IRAK-1-4 Inhibitor I 0.018 | ibrutinib 0.022 | [9] -0.021 | ralimetinib 0.023 | [10] 0.075 | [11] -0.035 | [13] -0.204 | [14] -0.002 | [15] 0.045 | [16] -0.065

DHRS13 (UniProt Q6UX07)
inactive: erlotinib 0.227 | [2] -0.074 | [4] -0.142 | [5] 0.133 | IRAK-1-4 Inhibitor I -0.162 | ibrutinib -0.106 | [9] -0.003 | ralimetinib 0.094 | [10] -0.111 | [11] -0.073 | [12] 0.082 | [13] -0.292 | [14] 0.03 | [15] -0.009 | [16] 0.111

DNTTIP2 (UniProt Q5QJE6)
inactive: erlotinib -0.028 | [1] -0.31 | [2] 0.06 | [3] -0.189 | [4] -0.108 | [6] 0.07 | [7] -0.008 | [8] -0.024 | ibrutinib 0.149 | [9] -0.033 | [11] 0.023 | [12] 0.273 | [13] -0.003 | [14] 0.03 | [16] 0.053

Source: the supplement of paper PMC10849652
